# Test results as given in the supplement of paper PMC10849652.
# Chains of the proteins cited; added tags and fusions are not shown. Lines headed by an entry give the natural chain unless they say otherwise; changes in a name come on top.
# UniProt Q9Y2Z0: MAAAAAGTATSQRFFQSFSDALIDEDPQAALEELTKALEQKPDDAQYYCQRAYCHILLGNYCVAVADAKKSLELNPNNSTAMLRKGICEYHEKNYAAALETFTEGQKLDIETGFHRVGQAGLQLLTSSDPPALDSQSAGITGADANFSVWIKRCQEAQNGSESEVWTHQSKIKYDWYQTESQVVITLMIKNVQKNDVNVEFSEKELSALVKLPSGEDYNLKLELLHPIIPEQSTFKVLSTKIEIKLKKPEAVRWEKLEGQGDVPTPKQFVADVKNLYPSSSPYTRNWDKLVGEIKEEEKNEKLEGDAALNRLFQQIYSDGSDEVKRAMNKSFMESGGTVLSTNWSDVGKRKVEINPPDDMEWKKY
# UniProt Q7RTN6: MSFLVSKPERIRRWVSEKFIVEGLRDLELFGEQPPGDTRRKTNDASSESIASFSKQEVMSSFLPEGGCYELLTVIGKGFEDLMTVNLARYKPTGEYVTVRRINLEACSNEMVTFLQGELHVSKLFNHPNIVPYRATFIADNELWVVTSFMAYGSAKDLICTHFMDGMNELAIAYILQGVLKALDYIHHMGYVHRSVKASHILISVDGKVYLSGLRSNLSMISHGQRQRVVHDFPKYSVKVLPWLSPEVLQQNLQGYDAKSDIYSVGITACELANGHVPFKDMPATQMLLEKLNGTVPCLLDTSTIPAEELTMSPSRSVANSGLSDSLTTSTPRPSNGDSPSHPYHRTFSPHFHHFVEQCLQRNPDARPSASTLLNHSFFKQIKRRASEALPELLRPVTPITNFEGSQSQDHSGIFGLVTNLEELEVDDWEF
# UniProt Q96A49: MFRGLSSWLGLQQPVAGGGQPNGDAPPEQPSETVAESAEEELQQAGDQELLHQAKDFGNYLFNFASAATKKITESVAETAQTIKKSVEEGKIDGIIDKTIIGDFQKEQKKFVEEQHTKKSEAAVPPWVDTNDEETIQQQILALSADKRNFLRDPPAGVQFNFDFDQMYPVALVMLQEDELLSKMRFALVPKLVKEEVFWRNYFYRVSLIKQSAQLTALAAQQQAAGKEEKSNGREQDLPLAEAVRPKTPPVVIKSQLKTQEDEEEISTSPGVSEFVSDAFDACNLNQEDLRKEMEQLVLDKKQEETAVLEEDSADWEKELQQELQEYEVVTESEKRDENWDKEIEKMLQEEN
# UniProt Q9Y5B9, whole entry, looked up: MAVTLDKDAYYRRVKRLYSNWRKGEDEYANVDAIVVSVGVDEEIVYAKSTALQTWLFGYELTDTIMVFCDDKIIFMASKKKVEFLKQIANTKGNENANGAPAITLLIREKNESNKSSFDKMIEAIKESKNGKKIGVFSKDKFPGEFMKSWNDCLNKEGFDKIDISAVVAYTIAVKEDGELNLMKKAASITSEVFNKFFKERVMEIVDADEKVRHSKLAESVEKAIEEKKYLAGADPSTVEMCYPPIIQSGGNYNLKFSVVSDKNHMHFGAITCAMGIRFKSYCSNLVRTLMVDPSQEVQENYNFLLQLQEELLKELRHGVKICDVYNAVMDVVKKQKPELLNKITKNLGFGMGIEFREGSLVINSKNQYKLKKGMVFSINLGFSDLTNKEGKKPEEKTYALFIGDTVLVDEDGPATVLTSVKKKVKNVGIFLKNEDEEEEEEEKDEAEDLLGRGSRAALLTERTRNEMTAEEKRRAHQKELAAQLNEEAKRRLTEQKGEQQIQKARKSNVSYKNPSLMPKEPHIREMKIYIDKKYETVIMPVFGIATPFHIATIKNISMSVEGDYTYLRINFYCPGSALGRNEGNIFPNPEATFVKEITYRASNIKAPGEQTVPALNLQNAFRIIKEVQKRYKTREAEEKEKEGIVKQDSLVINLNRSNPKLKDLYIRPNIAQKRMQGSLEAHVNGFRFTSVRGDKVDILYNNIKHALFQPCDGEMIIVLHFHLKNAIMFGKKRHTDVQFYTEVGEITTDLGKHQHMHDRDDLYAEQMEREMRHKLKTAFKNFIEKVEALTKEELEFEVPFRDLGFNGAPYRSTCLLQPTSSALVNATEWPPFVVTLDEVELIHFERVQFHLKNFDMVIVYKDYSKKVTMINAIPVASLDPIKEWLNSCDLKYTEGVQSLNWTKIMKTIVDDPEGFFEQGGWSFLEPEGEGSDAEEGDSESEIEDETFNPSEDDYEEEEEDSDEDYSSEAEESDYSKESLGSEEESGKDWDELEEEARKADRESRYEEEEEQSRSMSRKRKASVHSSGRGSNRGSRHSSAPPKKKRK
# UniProt B4DR80: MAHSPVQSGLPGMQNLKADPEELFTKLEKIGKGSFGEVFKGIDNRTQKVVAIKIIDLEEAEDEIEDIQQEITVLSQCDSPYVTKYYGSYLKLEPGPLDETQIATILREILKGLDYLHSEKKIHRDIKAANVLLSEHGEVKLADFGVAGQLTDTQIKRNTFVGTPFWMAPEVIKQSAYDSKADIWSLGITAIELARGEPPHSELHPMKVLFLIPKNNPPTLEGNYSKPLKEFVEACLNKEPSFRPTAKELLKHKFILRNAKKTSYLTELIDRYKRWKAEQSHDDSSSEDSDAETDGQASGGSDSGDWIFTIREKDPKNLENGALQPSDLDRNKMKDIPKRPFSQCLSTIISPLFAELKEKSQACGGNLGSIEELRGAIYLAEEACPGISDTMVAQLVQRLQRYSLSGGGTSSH
# UniProt Q6ZWJ1: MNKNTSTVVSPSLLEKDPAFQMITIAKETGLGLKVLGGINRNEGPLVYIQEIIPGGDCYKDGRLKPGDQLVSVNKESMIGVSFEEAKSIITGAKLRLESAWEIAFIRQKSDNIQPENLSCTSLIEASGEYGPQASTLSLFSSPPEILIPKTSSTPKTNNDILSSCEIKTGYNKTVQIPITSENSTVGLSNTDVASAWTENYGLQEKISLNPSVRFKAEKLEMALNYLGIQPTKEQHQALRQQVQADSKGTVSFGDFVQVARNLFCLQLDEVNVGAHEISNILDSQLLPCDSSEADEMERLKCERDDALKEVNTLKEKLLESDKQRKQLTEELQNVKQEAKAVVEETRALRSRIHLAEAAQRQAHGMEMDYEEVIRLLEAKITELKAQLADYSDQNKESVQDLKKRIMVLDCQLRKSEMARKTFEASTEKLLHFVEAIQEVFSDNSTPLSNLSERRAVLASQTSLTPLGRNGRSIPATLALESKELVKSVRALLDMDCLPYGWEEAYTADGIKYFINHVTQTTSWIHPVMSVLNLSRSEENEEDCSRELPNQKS
# UniProt Q12846: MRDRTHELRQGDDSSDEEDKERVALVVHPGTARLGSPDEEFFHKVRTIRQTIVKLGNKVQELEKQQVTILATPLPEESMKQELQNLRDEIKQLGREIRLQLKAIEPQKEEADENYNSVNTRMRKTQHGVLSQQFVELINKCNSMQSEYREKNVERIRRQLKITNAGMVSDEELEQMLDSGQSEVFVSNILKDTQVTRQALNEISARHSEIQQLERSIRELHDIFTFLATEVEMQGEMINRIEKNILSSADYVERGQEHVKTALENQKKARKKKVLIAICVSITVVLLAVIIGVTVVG
# UniProt Q9UJZ1: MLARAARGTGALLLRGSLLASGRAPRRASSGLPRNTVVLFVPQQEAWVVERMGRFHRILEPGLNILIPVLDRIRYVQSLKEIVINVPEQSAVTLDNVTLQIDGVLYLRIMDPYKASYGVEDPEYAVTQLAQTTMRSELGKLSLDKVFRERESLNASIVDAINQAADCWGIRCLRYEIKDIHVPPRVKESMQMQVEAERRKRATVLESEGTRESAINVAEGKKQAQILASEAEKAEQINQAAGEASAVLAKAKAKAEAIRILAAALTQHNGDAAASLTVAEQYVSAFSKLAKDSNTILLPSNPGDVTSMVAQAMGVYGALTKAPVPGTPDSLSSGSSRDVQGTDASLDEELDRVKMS
# UniProt Q86TM6, whole entry, looked up: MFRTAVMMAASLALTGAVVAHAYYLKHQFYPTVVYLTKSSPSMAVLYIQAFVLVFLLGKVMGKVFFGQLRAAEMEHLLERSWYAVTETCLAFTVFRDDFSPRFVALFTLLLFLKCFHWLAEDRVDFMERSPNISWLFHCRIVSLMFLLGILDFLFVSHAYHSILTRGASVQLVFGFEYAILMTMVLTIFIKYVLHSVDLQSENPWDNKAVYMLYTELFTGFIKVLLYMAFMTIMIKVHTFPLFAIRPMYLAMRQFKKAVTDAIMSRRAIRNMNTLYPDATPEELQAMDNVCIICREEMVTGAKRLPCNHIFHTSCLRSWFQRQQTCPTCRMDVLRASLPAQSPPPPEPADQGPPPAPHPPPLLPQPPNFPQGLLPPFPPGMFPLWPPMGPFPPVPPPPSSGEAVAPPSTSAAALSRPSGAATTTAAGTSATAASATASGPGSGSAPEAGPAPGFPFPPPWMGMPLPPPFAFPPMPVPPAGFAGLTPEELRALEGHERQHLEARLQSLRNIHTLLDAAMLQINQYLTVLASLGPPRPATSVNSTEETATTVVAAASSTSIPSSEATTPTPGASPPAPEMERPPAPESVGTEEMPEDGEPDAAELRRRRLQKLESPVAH
# UniProt O43760: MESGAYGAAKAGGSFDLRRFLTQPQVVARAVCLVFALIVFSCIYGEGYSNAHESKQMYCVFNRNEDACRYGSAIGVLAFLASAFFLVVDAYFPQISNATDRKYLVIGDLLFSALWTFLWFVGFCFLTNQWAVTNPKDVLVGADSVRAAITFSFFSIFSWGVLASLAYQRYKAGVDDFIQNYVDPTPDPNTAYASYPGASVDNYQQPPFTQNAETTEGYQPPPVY
# UniProt Q5T5C0: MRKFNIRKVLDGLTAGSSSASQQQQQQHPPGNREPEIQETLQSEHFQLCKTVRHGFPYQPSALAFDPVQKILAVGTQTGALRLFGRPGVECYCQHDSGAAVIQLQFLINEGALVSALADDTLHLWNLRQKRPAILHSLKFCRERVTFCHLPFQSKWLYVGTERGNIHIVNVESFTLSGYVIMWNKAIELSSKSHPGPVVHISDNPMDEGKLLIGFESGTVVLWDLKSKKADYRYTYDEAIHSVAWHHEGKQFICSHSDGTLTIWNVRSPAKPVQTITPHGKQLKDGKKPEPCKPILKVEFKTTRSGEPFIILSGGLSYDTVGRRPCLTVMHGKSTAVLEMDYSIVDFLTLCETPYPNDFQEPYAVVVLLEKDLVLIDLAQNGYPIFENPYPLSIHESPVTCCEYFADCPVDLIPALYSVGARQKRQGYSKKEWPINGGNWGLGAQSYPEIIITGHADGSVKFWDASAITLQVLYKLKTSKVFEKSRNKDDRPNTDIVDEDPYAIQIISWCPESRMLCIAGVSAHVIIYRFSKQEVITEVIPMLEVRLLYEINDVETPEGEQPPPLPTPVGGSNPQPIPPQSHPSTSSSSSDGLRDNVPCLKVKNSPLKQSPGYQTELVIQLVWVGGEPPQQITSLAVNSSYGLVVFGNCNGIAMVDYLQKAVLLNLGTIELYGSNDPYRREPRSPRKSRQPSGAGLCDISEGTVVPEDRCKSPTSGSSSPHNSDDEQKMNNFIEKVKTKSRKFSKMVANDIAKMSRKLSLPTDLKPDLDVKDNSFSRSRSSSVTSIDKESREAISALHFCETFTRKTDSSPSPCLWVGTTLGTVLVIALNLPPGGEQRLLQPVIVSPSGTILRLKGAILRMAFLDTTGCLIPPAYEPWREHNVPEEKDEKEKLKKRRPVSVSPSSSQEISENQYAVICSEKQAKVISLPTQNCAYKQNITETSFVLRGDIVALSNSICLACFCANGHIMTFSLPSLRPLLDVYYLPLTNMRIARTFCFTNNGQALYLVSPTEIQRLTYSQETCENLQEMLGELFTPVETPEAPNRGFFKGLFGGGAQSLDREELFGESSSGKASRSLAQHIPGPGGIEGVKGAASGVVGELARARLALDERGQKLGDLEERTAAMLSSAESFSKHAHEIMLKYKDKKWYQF
# UniProt O14662: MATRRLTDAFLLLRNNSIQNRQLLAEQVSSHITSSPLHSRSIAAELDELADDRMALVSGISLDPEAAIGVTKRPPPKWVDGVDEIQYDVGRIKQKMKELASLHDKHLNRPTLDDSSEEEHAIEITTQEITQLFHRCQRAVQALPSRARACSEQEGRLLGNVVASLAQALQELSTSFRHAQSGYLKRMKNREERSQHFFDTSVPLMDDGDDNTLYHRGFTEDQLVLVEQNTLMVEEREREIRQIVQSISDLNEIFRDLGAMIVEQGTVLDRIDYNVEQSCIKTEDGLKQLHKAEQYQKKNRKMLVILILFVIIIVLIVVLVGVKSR
# UniProt Q9UNK0: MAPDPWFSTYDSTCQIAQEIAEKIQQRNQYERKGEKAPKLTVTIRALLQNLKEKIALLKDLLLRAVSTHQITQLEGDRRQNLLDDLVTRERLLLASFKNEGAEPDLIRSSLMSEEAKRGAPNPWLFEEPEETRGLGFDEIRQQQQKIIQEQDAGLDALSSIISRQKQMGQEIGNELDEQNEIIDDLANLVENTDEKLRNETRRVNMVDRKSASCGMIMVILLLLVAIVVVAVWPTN
# This is one part of the list.
# Experiments:
# Experiment in all cases: log2 fold change, soluble protein after heating vs DMSO (PISA); higher = thermal stabilisation; K562 lysate, 10 uM; active = over 0.2 and 3.5 SD of the protein, either way, in both replicates (recomputed)
# [1] = compound: C#Cc1cccc(Nc2ncnc3cc(OCCOC)c(OCCOC)cc23)c1 [erlotinib]
# Outline: (§1)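 Pellets of K562 cells were dounce-homogenised in PBS pH 7.4 with 1 mM MgCl2, and the crude extract was held at 1 mg/mL protein for a 30 min treatment with 10 μM compound. Aliquots were heated for 3 min over 48°C-58°C and pooled before NP-40 was added to 0.5% at 4°C. The supernatant from 21,000xg for 90 min was quantified by TMTpro 16plex LC-MS/MS with channel sums equalised. Values are reported from duplicates as log-two fold change in thermal stability relative to solvent controls.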
# [2] = compound: C/C(=N\NC(=O)C1=CC(=CC=C1)S(=O)(=O)N2CCOCC2)/C3=C(C=CC(=C3)Cl)O
# Outline: as §1
# [3] = compound: C1=CC(=CC=C1C2=NC3=C(N2)C=C(C=C3)C(=O)N)OC4=CC=C(C=C4)Cl
# Outline: as §1
# [4] = compound: C1=CC2=C(C=CC(=C2)/C=C\3/C(=O)NC(=NCC4=CC=CS4)S3)N=C1
# Outline: as §1
# [5] = compound: C1=CC2=NC=CN=C2C=C1/C=C/3\C(=O)NC(=O)S3
# Outline: as §1
# [6] = compound: C1=CC=C(C=C1)C2=NC(=C(N2)C3=CC=NC=C3)C4=CC(=C(C=C4)Cl)O
# Outline: as §1
# [7] = compound: C1=CC=C2C(=C1)C3=NNC4=CC=CC(=C43)C2=O
# Outline: as §1
# [8] = compound: C1CCN(C1)C(=O)NC2=CC=CC(=C2)NC3=NC=C(C(=N3)NCCC4=CN=CN4)Br
# Outline: as §1
# [9] = compound: C1CN(CCC1(CC2=CC=C(C=C2)Cl)N)C3=NC=NC4=C3C=CN4
# Outline: as §1
# [10] = compound: C1COCCN1CCN2C3=CC=CC=C3N=C2NC(=O)C4=CC(=CC=C4)[N+](=O)[O-] [IRAK-1-4 Inhibitor I]
# Outline: as §1
# [11] = compound: C=CC(=O)N1CCC[C@@H](n2nc(-c3ccc(Oc4ccccc4)cc3)c3c(N)ncnc32)C1 [ibrutinib]
# Outline: as §1
# [12] = compound: CC(=O)c1cnc2ccc(-c3cc(Cl)c(O)c(Cl)c3)nc2c1N[C@H]1CC[C@H](CN(C)C)CC1
# Outline: as §1
# [13] = compound: CC(C)(C)Cn1c(N)nc2ccc(-c3[nH]c(C(C)(C)C)nc3-c3ccc(F)cc3)nc21 [ralimetinib]
# Outline: as §1
# [14] = compound: CC(C)(O)CC(=O)NCCn1ccc2ncnc(Nc3ccc(Oc4cccc(C(F)(F)F)c4)c(Cl)c3)c21
# Outline: as §1
# [15] = compound: CC(C)C1=C2N=C(C=C(N2N=C1)NCC3=CC=CC=C3)NCCCCCCN
# Outline: as §1
# [16] = compound: CC1=C(C(CC(=O)N1)C2=CC=C(C=C2)C(F)(F)F)C(=O)NC3=C(C=C4C(=C3)C=NN4)F
# Outline: as §1
# [17] = compound: CC1=C(C2=C(C=C1)C(=O)C3=CC=CC=C3N2CCCN)C
# Outline: as §1
# [18] = compound: CC1=C(C=C(C=C1)NC(=O)C2=CC(=CC=C2)C(C)(C)C#N)NC3=CC4=C(C=C3)N=CN(C4=O)C
# Outline: as §1
# [19] = compound: CC1=C(C=C(C=C1)NC(=O)C2=CC(=CC=C2)N(C)C)NC(=O)C3=CC=C(C=C3)O
# Outline: as §1
# [20] = compound: CC1=CC=C(C=C1)SC2=C3C=C(SC3=CN=C2)C(=O)N
# Outline: as §1
Target,log2 fold change [1],log2 fold change [2],log2 fold change [3],log2 fold change [4],log2 fold change [5],log2 fold change [6],log2 fold change [7],log2 fold change [8],log2 fold change [9],log2 fold change [10],log2 fold change [11],log2 fold change [12],log2 fold change [13],log2 fold change [14],log2 fold change [15],log2 fold change [16],log2 fold change [17],log2 fold change [18],log2 fold change [19],log2 fold change [20]
SUGT1 isoform 2 (UniProt Q9Y2Z0),inactive: -0.111,inactive: 0.047,inactive: 0.09,inactive: -0.033,inactive: -0.097,inactive: -0.025,inactive: -0.083,inactive: 0.029,inactive: 0.026,inactive: 0.005,inactive: 0.257,inactive: 0.025,inactive: 0.037,inactive: 0.071,inactive: -0.069,inactive: -0.043,inactive: 0.011,inactive: 0.081,inactive: 0.008,inactive: 0.02
STRADA (UniProt Q7RTN6),inactive: 0.025,inactive: -0.016,inactive: -0.003,inactive: 0.003,inactive: -0.046,inactive: 0.015,inactive: 0.039,inactive: 0.044,inactive: -0.03,inactive: 0.069,inactive: -0.019,inactive: -0.156,inactive: 0.007,inactive: -0.044,inactive: -0.003,inactive: 0.139,inactive: 0.026,inactive: -0.005,inactive: -0.002,inactive: 0.054
SYAP1 (UniProt Q96A49),inactive: -0.046,inactive: -0.003,inactive: 0.039,inactive: 0.033,inactive: -0.044,inactive: -0.072,inactive: 0.055,inactive: -0.04,inactive: -0.005,inactive: 0.023,inactive: 0.007,inactive: 0.009,inactive: -0.065,inactive: -0.005,inactive: 0.066,inactive: 0.015,inactive: -0.049,inactive: 0.016,inactive: -0.054,inactive: 0.04
SUPT16H (UniProt Q9Y5B9),inactive: -0.016,inactive: -0.011,inactive: -0.013,inactive: 0.009,inactive: -0.015,inactive: -0.003,inactive: -0.049,inactive: -0.023,inactive: -0.001,inactive: -0.017,inactive: -0.001,inactive: -0.012,inactive: 0.001,inactive: 0.004,inactive: -0.012,inactive: 0.019,inactive: -0.201,inactive: 0.016,inactive: 0.035,inactive: -0.01
STK24 (UniProt B4DR80),inactive: 0.019,inactive: 0.02,inactive: 0.018,inactive: -0.04,inactive: -0.003,inactive: -0.004,inactive: 0.198,inactive: 0.045,inactive: 0.013,inactive: -0.007,inactive: 0.024,active: 0.218,inactive: 0.005,inactive: 0.024,inactive: 0.001,inactive: -0.019,inactive: -0.019,inactive: -0.018,inactive: -0.019,inactive: -0.018
STXBP4 (UniProt Q6ZWJ1),inactive: -0.014,inactive: -0.015,inactive: 0.007,inactive: 0.051,inactive: 0.017,inactive: 0.018,inactive: -0.004,inactive: -0.019,inactive: -0.028,inactive: 0.018,inactive: 0.032,inactive: 0.007,inactive: 0,inactive: -0.015,inactive: -0.054,inactive: 0.003,inactive: -0.022,inactive: 0.05,inactive: 0.019,inactive: 0.04
TACO1 (UniProt Q9BSH4),inactive: 0.019,inactive: 0.363,inactive: -0.008,inactive: -0.031,inactive: 0.007,inactive: -0.003,inactive: -0.013,inactive: -0.057,inactive: 0.026,inactive: -0.009,inactive: -0.02,inactive: 0.022,inactive: 0.011,inactive: -0.007,inactive: 0.02,inactive: -0.028,inactive: -0.041,inactive: -0.045,inactive: 0.016,inactive: 0.038
SYNE1 (UniProt Q8NF91),inactive: 0.05,inactive: 0.015,inactive: 0.037,inactive: -0.018,inactive: -0.049,inactive: 0.081,inactive: -0.191,inactive: -0.067,inactive: 0.101,inactive: 0.173,inactive: -0.011,inactive: -0.096,inactive: -0.125,inactive: -0.259,inactive: 0.019,inactive: -0.008,inactive: -0.168,inactive: 0.326,inactive: 0.037,inactive: -0.002
STX4 (UniProt Q12846),inactive: -0.01,inactive: 0.032,inactive: 0.039,inactive: 0.04,inactive: 0.012,inactive: -0.046,inactive: -0.039,inactive: 0.022,inactive: -0.002,inactive: -0.002,inactive: -0.015,inactive: 0.013,inactive: 0.039,inactive: 0.027,inactive: -0.024,inactive: 0.042,inactive: -0.012,inactive: -0.008,inactive: -0.005,inactive: 0
STOML2 (UniProt Q9UJZ1),inactive: -0.021,inactive: 0.018,inactive: 0.04,inactive: -0.049,inactive: 0.037,inactive: 0.012,inactive: -0.063,inactive: 0.023,inactive: 0.027,inactive: 0.036,inactive: 0.017,inactive: -0.012,inactive: -0.015,inactive: -0.028,inactive: 0.033,inactive: -0.025,inactive: -0.04,inactive: 0,inactive: 0.002,inactive: -0.006
SYVN1 (UniProt Q86TM6),inactive: -0.004,inactive: 0.007,inactive: -0.074,inactive: 0.041,inactive: 0.014,inactive: 0.021,inactive: -0.145,inactive: 0.048,inactive: -0.018,inactive: 0.06,inactive: 0.036,inactive: 0.032,inactive: 0.037,inactive: -0.077,inactive: 0.014,inactive: 0.063,inactive: -0.008,inactive: 0.041,inactive: -0.051,inactive: -0.002
SYNGR2 (UniProt O43760),inactive: -0.003,inactive: -0.049,inactive: 0,inactive: 0.012,inactive: -0.047,inactive: -0.052,inactive: -0.045,inactive: -0.087,inactive: 0.006,inactive: 0.035,inactive: -0.019,inactive: -0.06,inactive: 0.02,inactive: -0.02,inactive: 0.008,inactive: -0.016,inactive: -0.002,inactive: 0.018,inactive: -0.009,inactive: 0.034
STXBP5 (UniProt Q5T5C0),inactive: -0.022,inactive: -0.047,inactive: 0.031,inactive: -0.005,inactive: -0.022,inactive: 0.015,inactive: -0.018,inactive: -0.038,inactive: 0.006,inactive: -0.026,inactive: -0.001,inactive: 0.003,inactive: -0.006,inactive: 0.005,inactive: -0.01,inactive: 0.014,inactive: -0.038,inactive: 0.039,inactive: -0.006,inactive: -0.008
STX16 isoform 2 (UniProt O14662),inactive: 0.092,inactive: 0.038,inactive: 0.011,inactive: -0.006,inactive: -0.018,inactive: -0.02,inactive: -0.024,inactive: -0.017,inactive: -0.004,inactive: 0.022,inactive: 0.007,inactive: 0.043,inactive: -0.009,inactive: -0.033,inactive: 0.079,inactive: 0.039,inactive: -0.031,inactive: 0.014,inactive: -0.055,inactive: -0.017
TAF2 (UniProt Q6P1X5),inactive: 0.033,inactive: 0.052,inactive: 0.029,inactive: 0.062,inactive: 0.056,inactive: -0.004,inactive: -0.017,inactive: -0.008,inactive: -0.004,inactive: 0.088,inactive: 0.089,inactive: 0.025,inactive: 0.075,inactive: 0,inactive: -0.033,inactive: -0.046,inactive: 0.068,inactive: 0.005,inactive: -0.028,inactive: 0.03
STX8 (UniProt Q9UNK0),inactive: 0.015,inactive: -0.013,inactive: -0.029,inactive: -0.005,inactive: -0.017,inactive: -0.002,inactive: -0.053,inactive: 0.007,inactive: 0.024,inactive: 0.003,inactive: 0.063,inactive: -0.018,inactive: 0.029,inactive: 0.007,inactive: -0.016,inactive: -0.048,inactive: 0.023,inactive: 0,inactive: -0.032,inactive: -0.018

# Copied from the list:
# log2 fold change [6] with STOML2 (UniProt Q9UJZ1) is entered as inactive: 0.012
# log2 fold change [14] with STXBP5 (UniProt Q5T5C0) is entered as inactive: 0.005
